Laboratory results: article PMC5006283
Results are given in words; binding and its absence hold for the method and conditions named. In cells and extracts the contact can be indirect. Some binding calls cover weakened binding; strength is not graded here. Tags and fused reporters may be left off the sequences shown.

How the values were obtained:
[1] = target: T1, myc-RI (ribonuclease inhibitor from pcDNA3.1(-)-myc-RI) (human) (UniProt P13489); assay: co-IP; EJ and HEK293 cells co-transfected with pCMV-3xFlag-ILK and pcDNA3.1(-)-myc-RI; precipitated with anti-Myc antibody and protein A-agarose; blotted with anti-RI or anti-ILK
T1 sequence: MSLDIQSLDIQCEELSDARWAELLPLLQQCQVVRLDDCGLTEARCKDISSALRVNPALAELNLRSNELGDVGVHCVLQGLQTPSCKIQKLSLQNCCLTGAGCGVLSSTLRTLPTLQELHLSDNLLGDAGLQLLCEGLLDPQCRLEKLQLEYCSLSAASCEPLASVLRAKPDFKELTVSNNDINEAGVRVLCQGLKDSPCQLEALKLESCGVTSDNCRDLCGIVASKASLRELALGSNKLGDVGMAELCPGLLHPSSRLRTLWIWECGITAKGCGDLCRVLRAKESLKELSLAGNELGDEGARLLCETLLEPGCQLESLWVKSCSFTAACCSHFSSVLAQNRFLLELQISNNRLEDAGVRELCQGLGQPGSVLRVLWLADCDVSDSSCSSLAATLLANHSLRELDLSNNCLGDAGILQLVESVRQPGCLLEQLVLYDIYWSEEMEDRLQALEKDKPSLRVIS

[2] = target: T2, GST-RI (ribonuclease inhibitor fused to GST) (human) (UniProt P13489); assay: pull-down; GST-RI held on glutathione-Sepharose 4B beads; extracts of transfected EJ or HEK293 cells added; 3 h at 4 °C with rotation; washed with ice-cold PBS; Western blot; only the target purified
T2 sequence: T1 sequence

[3] = target: T1, myc-RI (ribonuclease inhibitor from pcDNA3.1(-)-myc-RI) (human); assay: FRET or BRET; EJ cells transfected with pCMV-3xFlag-ILK and pcDNA3.1(-)-myc-RI; immunofluorescence with Alexa Fluor 488 (ILK) and cy3 (RI) secondary antibodies; acceptor photobleaching of cy3 with the 543 nm laser

binding [1] | binding [2] | binding [3] | Substance
binds | binds | binds | Flag-ILK (integrin-linked kinase from pCMV-3xFlag-ILK) (from UniProt Q13418-1 1-452)
 | binds |  | endogenous ILK (integrin-linked kinase) (from UniProt Q13418-1 1-452)
